The target in this assay is Nrf1^3xFLAG (Nuclear factor erythroid derived 2-related factor 1, C-terminally 3xFLAG-tagged) (UniProt Q14494). Description: co-IP.

Protein sequences, listed by entry. Tags and fused reporters are not part of them. Lines headed by an entry give the natural chain unless they say otherwise; changes in a name come on top. Residues count along the entry.
UniProt Q14494, residues 104-772: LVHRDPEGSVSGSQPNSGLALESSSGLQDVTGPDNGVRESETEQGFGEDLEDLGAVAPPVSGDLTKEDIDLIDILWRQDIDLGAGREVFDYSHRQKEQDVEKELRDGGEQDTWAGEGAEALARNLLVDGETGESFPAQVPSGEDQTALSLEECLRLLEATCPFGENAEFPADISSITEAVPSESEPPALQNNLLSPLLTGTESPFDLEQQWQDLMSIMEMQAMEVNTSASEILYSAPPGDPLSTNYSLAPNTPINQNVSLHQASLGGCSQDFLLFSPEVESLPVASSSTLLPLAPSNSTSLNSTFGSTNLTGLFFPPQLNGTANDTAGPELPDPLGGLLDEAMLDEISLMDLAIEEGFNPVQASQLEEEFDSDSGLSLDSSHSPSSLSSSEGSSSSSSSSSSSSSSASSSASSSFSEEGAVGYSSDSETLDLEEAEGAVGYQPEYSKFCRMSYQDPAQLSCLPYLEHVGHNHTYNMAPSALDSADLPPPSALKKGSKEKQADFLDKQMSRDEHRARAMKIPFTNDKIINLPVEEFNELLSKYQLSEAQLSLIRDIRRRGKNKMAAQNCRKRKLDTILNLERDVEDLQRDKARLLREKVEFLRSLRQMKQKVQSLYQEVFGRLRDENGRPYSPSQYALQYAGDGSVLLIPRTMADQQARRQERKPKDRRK
UniProt Q9Y265: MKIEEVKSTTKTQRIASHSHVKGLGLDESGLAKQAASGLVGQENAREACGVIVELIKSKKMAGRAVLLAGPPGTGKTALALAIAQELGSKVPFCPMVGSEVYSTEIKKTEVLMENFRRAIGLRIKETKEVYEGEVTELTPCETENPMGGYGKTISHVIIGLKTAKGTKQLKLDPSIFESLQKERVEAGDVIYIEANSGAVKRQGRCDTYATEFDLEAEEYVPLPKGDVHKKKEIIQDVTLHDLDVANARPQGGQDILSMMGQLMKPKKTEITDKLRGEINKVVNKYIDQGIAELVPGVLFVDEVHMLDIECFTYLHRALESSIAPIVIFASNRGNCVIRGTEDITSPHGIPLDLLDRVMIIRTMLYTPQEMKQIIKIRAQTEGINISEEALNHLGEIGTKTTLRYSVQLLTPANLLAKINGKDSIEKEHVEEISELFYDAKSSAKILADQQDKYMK

These are yes or no findings as the source states them, for the method shown. Binding seen in cells or lysates may run through a third protein. Some results given as binding are weak or reduced against the parent protein; the word gives no strength.

Turning to “RUVBL1/2 (from UniProt Q9Y265 1-456; Q9Y230 1-463) (complex)”, the binding entry is “binds”.

For the origin of these results see doi:10.1101/443937.
